Assay [1] has as its target V1- or V2-labelled fusion of PEAK1 (human) (UniProt Q9H792). Put plainly: split reporter; BiCAP: V1- and V2-labelled PEAK1/PEAK2 co-expressed in HEK293T; dimers with recombined Venus purified on GFP-Trap_A beads.
For assay [2], the target named is Flag-tagged PEAK1 R297A/L301A/R303A (human) (UniProt Q9H792). Put plainly: co-IP; Western blotting of PEAK1 IPs, WT against AAA and EE CIM mutants (Supplementary Fig. 7B–D); cell line not shown.
For assay [3], the target named is Flag-tagged PEAK1 R297E/R303E (human) (UniProt Q9H792). Described as above.
The target of assay [4] is Flag-tagged WT PEAK1 (MDA-MB-231) (human) (UniProt Q9H792). Described as above.
Assay [5] deals with T1, Flag-tagged PEAK1 N-term (1-324 amino acids) (human) (UniProt Q9H792).
T1 sequence: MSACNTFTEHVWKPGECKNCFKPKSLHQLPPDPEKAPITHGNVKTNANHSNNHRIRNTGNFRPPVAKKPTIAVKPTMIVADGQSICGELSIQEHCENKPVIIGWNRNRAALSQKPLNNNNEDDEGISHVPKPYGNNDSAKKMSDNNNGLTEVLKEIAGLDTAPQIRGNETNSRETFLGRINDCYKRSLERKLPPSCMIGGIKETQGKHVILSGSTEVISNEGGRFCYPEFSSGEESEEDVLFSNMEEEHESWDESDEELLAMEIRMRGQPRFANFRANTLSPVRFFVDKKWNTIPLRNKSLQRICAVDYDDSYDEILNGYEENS
The assay can be described thus: co-IP; Flag-tagged PEAK1 and deletion mutants expressed in HEK293T; anti-FLAG M2 agarose IP from lysate (normal lysis buffer), 4 °C 2–4 h; Western blot for CAMK2D or CAMK2G. In general terms: In western blotting, separated proteins are transferred to a membrane and probed.

The chains behind the UniProt entries cited, without tags or fusion partners.
UniProt P62993: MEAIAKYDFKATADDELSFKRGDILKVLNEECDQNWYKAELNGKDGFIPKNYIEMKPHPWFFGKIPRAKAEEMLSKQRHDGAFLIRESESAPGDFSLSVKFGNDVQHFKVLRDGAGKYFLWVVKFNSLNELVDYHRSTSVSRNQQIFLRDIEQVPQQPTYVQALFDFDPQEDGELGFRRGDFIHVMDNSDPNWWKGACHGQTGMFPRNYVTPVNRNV
UniProt Q13557: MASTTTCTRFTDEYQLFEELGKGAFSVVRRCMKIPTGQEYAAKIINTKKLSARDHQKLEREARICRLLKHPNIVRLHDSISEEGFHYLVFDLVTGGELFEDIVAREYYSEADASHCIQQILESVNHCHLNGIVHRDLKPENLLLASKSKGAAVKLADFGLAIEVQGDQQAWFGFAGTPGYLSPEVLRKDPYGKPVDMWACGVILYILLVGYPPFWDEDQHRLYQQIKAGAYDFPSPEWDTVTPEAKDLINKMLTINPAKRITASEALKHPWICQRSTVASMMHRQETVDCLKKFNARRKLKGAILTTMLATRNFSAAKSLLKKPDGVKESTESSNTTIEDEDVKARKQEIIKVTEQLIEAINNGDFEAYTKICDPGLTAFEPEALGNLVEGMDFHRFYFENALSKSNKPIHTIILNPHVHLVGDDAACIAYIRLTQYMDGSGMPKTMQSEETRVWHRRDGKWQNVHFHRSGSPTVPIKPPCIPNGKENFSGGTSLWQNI
UniProt P46109: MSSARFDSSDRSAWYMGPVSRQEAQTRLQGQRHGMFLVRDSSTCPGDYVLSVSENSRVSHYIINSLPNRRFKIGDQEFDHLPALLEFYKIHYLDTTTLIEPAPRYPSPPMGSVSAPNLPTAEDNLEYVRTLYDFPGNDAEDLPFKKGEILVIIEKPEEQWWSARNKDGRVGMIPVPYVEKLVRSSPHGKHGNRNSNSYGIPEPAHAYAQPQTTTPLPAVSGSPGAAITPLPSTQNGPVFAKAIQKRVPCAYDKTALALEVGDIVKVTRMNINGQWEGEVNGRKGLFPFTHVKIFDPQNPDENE
UniProt Q13555: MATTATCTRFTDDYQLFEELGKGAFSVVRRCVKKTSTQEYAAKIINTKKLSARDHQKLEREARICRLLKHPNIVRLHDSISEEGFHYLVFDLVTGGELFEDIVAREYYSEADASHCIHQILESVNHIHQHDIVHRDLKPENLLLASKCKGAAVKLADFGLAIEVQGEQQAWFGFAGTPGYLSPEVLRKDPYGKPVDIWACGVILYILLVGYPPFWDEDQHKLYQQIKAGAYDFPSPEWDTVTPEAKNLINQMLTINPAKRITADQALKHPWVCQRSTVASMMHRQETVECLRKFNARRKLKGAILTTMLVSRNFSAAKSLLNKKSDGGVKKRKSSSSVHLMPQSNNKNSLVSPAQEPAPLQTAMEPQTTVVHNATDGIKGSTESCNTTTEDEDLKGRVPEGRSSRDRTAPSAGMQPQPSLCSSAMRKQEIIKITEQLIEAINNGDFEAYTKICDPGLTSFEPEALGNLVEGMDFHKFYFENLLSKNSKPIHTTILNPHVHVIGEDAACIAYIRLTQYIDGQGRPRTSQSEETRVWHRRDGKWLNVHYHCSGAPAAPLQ

In assay [6] the target is Flag-tagged PEAK1 WT (HEK293T) (human) (UniProt Q9H792). Described as above.
The target in assay [7] is Flag-tagged PEAK1 Δ261–300 (human) (UniProt Q9H792). The assay is described as above.
The target in assay [8] is Flag-tagged PEAK1 Δ261–324 (human) (UniProt Q9H792). Described as above.
In assay [9] the target is Flag-tagged PEAK1 Δ301–324 (human) (UniProt Q9H792). The assay is described as above.
Assay [10] deals with PEAK1, endogenous in MDA-MB-231 (human (endogenous in MDA-MB-231)) (UniProt Q9H792). Put plainly: proximity ligation; Duolink PLA on fixed, permeabilised MDA-MB-231 cells, endogenous proteins; si-PEAK1, si-PEAK2 or si-Control.
For assay [11], the target named is T2, PEAK2, endogenous in MDA-MB-231 (human (endogenous in MDA-MB-231)) (UniProt Q86YV5).
T2 sequence: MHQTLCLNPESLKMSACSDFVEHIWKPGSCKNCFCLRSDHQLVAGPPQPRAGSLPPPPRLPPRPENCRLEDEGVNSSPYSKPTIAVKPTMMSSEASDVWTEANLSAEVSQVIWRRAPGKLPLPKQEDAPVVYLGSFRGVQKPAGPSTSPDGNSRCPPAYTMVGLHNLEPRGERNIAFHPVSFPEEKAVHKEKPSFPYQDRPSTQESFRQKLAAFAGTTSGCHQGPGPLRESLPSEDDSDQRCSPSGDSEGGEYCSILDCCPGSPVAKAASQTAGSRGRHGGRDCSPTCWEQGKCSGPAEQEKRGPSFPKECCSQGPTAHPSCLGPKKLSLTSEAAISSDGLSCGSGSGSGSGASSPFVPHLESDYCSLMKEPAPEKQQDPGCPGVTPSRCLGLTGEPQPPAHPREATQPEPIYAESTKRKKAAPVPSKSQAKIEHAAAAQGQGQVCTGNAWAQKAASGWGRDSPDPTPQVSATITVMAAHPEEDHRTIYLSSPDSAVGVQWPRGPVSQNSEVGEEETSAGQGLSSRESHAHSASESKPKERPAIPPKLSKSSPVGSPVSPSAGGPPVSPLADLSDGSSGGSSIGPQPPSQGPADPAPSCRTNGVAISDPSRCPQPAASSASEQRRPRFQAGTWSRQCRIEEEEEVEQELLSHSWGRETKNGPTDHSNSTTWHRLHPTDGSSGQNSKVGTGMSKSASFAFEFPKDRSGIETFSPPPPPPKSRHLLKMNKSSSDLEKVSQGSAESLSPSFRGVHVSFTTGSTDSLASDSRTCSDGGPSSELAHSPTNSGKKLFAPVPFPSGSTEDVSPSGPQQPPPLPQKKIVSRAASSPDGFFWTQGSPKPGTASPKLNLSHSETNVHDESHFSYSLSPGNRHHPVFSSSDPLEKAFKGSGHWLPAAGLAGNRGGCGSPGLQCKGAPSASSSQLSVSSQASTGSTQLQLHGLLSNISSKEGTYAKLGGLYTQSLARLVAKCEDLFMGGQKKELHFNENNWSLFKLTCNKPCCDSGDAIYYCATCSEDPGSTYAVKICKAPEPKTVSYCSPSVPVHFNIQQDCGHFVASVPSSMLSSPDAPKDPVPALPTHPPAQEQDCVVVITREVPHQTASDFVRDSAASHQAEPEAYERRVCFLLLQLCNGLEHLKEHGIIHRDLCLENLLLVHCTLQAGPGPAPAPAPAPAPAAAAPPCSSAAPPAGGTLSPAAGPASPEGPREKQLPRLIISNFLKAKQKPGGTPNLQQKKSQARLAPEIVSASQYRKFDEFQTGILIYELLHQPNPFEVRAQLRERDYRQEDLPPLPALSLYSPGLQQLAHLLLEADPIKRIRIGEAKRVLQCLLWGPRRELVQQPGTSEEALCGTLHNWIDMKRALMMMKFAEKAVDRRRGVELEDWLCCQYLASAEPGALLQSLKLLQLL
The assay is described as above.

The target of assay [12] is V1- or V2-labelled fusion of PEAK2 (UniProt Q86YV5). Put plainly: split reporter; BiCAP: V1- and V2-labelled PEAK1/PEAK2 co-expressed in HEK293T; dimers with recombined Venus purified on GFP-Trap_A beads.
Assay [13] deals with Flag-tagged WT PEAK1 (MDA-MB-231) (human) (UniProt Q9H792). The assay can be described thus: co-IP; Flag-tagged WT PEAK1 or mutants expressed in MDA-MB-231 cells; association with endogenous PEAK2 by IP/Western.

No constants are given. Whether binding was seen depends on the method and setting. Binding seen in cells or lysates may run through a third protein. Some results given as binding are weak or reduced against the parent protein; the word gives no strength. For some assays here: Where a sequence is shown, tags or fusion partners need not be part of it.

Turning to “V1- or V2-labelled fusion of PEAK1 (from UniProt Q9H792 1-1746)”, the binding entry in assay [1] is “binds”.
As for “Grb2 (partner of PEAK1 in Supplementary Fig. 7B) (from UniProt P62993 1-217)”, the binding entry in assay [2], in assay [3] and in [4] was “binds” each time.
As to “calcium/calmodulin-dependent protein kinase 2 (CAMK2)D, endogenous in HEK293T (from UniProt Q13557 1-499) (enzyme)”, the binding result in assay [5] is on record as “no binding”; in assay [6], “binds”; in [7] it was “no binding”; in assay [8], “no binding”; in assay [9], “no binding”.
Take Crk-L (from UniProt P46109 1-303): the binding result in [2], in assay [3] and in assay [4] was “binds” in each case.
On to “calcium/calmodulin-dependent protein kinase 2 (CAMK2)G, endogenous in HEK293T (from UniProt Q13555 1-558) (enzyme)”, for which the binding result in assay [6] is “binds”.
For the molecule “CAMK2G, endogenous in MDA-MB-231 (from UniProt Q13555 1-558) (enzyme)”, the binding result in assay [10] and in assay [11] was “binds” each time.
Consider “CAMK2D, endogenous in MDA-MB-231 (from UniProt Q13557 1-499) (enzyme)”, for which the binding result in assay [10] and in assay [11] was “binds” in each case.

B1: V1- or V2-labelled fusion of PEAK2 (protein, UniProt Q86YV5 1-1406)
chain: T2 sequence
Consider B1, for which the binding result in [1] and in assay [12] was “binds” throughout.

B2: PEAK2, endogenous in MDA-MB-231 (protein, UniProt Q86YV5 1-1406)
chain: T2 sequence
Turning to B2, in [13], the binding result is listed as “binds”.

These data come from paper PMC11845518.
